# According to article PMC10233829 (ACS Omega, 2023):
# Tested on: PC3 cells
# Assay: MTT assay, cytotoxic activity
# Type: cell-based, human
# Settings: HaCaT vs PC3
# Procedure: Metastatic prostate cancer (PC3) and human immortal keratinocyte (HaCaT) cell lines were purchased from the American Type Culture Collection (ATCC, Rockville, MD, USA) and cultured in MEM (minimal essential medium, Thermo Sci, USA), RPMI 1640 (Roswell Park Memorial Institute, Biowest SAS, France), and DMEM (Dulbecco’s Modified Eagle’s Medium, Biowest SAS, France). Cells were seeded in 6 mL medium in a tissue culture flask (50 mL) in a 37 °C/5% CO2 humidified incubator. […] MTT analysis was performed according to a previous study.[59] Untreated cells were used as controls. Cell absorbance results were inserted into the formula for the relative MTT level (%). It allows to calculate the viability of cells under the influence of the tested compounds. Cell viability was expressed as the percentage of MTT reduction in cells treated with tested compounds compared to the control sample. The relative MTT level was calculated using the formula [100%] = A/B × 100% where A—the test sample absorbance and B—the control sample absorbance.
row,SMILES,SI (IC50 normal cell line/IC50 cancer cell line)
1,"C=CC(=O)N1CCN(c2cc3c(cc2F)c(=O)c(C(=O)O)cn3C2CC2)CC1 [Compound 1, 7-(4-Acryloyl-piperazin-1-yl)-1-cyclopropyl-6-fluoro-4-oxo-1,4-dihydro-quinoline-3-carboxylic Acid]",1.4
2,"O=C(O)c1cn(C2CC2)c2cc(N3CCN(C(=O)C4CC4)CC3)c(F)cc2c1=O [Compound 2, 7-(4-Cyclopropanecarbonyl-piperazin-1-yl)-1-cyclopropyl-6-fluoro-4-oxo-1,4-dihydro-quinoline-3-carboxylic Acid]",0.9
3,"O=C(O)c1cn(C2CC2)c2cc(N3CCN(C(=O)CCl)CC3)c(F)cc2c1=O [Compound 3, 7-[4-(2-Chloroacetyl)-piperazin-1-yl]-1-cyclopropyl-6-fluoro-4-oxo-1,4-dihydro-quinoline-3-carboxylic Acid]",17.6
4,"O=C(O)c1cn(C2CC2)c2cc(N3CCN(C(=O)CCCl)CC3)c(F)cc2c1=O [Compound 4, 7-[4-(3-Chloropropionyl)-piperazin-1-yl]-1-cyclopropyl-6-fluoro-4-oxo-1,4-dihydro-quinoline-3-carboxylic Acid]",1.9
5,"O=C(O)c1cn(C2CC2)c2cc(N3CCN(C(=O)CCCCl)CC3)c(F)cc2c1=O [Compound 5, 7-[4-(4-Chlorobutyryl)-piperazin-1-yl]-1-cyclopropyl-6-fluoro-4-oxo-1,4-dihydro-quinoline-3-carboxylic Acid]",1.0
6,"O=C(O)c1cn(C2CC2)c2cc(N3CCN(C(=O)CCCCCCl)CC3)c(F)cc2c1=O [Compound 7, 7-[4-(6-Chlorohexanoyl)-piperazin-1-yl]-1-cyclopropyl-6-fluoro-4-oxo-1,4-dihydro-quinoline-3-carboxylic Acid]",1
7,"O=C(O)c1cn(C2CC2)c2cc(N3CCN(C(=O)CBr)CC3)c(F)cc2c1=O [Compound 8, 7-[4-(2-Bromoacetyl)-piperazin-1-yl]-1-cyclopropyl-6-fluoro-4-oxo-1,4-dihydro-quinoline-3-carboxylic Acid]",1.1
8,"O=C(O)c1cn(C2CC2)c2cc(N3CCN(C(=O)CCBr)CC3)c(F)cc2c1=O [Compound 9, 7-[4-(3-Bromopropionyl)-piperazin-1-yl]-1-cyclopropyl-6-fluoro-4-oxo-1,4-dihydro-quinoline-3-carboxylic Acid]",1.4
9,"O=C(O)c1cn(C2CC2)c2cc(N3CCN(C(=O)CCCBr)CC3)c(F)cc2c1=O [Compound 10, 7-[4-(4-Bromobutyryl)-piperazin-1-yl]-1-cyclopropyl-6-fluoro-4-oxo-1,4-dihydro-quinoline-3-carboxylic Acid]",1.1
10,"O=C(O)c1cn(C2CC2)c2cc(N3CCN(C(=O)CCCCBr)CC3)c(F)cc2c1=O [Compound 11, 7-[4-(5-Bromopentanoyl)-piperazin-1-yl]-1-cyclopropyl-6-fluoro-4-oxo-1,4-dihydro-quinoline-3-carboxylic Acid]",0.9
11,"O=C(O)c1cn(C2CC2)c2cc(N3CCN(C(=O)CCCCCCCCCCBr)CC3)c(F)cc2c1=O [Compound 13, 7-[4-(11-Bromoundekanoyl)-piperazin-1-yl]-1-cyclopropyl-6-fluoro-4-oxo-1,4-dihydro-quinoline-3-carboxylic Acid]",2.7
12,"O=C(O)c1cn(C2CC2)c2cc(N3CCN(C(=O)CC(F)(F)F)CC3)c(F)cc2c1=O [Compound 14, 7-[4-(3,3,3-Trifluoropropionyl)-piperazin-1-yl]-1-cyclopropyl-6-fluoro-4-oxo-1,4-dihydro-quinoline-3-carboxylic Acid]",1.6
13,"O=C(O)c1cn(C2CC2)c2cc(N3CCN(C(=O)CCC(F)(F)F)CC3)c(F)cc2c1=O [Compound 15, 7-[4-(4,4,4-Trifluorobutyryl)-piperazin-1-yl]-1-cyclopropyl-6-fluoro-4-oxo-1,4-dihydro-quinoline-3-carboxylic Acid]",5.4
14,"O=C(O)c1cn(C2CC2)c2cc(N3CCN(C(=O)CCCC(F)(F)F)CC3)c(F)cc2c1=O [Compound 16, 7-[4-(5,5,5-Trifluoropentanoyl)-piperazin-1-yl]-1-cyclopropyl-6-fluoro-4-oxo-1,4-dihydro-quinoline-3-carboxylic Acid]",1.5
15,"O=C(O)c1cn(C2CC2)c2cc(N3CCN(CC(=O)N4CCN(c5cc6c(cc5F)c(=O)c(C(=O)O)cn6C5CC5)CC4)CC3)c(F)cc2c1=O [Compound 17, CP–Acetyl–CP Dimer]",0.5
16,"O=C(O)c1cn(C2CC2)c2cc(N3CCN(CCCC(=O)N4CCN(c5cc6c(cc5F)c(=O)c(C(=O)O)cn6C5CC5)CC4)CC3)c(F)cc2c1=O [Compound 18, CP–Butyryl–CP Dimer]",0.9
17,"O=C(O)c1cn(C2CC2)c2cc(N3CCN(CCCCC(=O)N4CCN(c5cc6c(cc5F)c(=O)c(C(=O)O)cn6C5CC5)CC4)CC3)c(F)cc2c1=O [Compound 19, CP–Pentanoyl–CP Dimer]",1.0
18,"O=C(O)c1cn(C2CC2)c2cc(N3CCN(CCCCCC(=O)N4CCN(c5cc6c(cc5F)c(=O)c(C(=O)O)cn6C5CC5)CC4)CC3)c(F)cc2c1=O [Compound 20, CP–Hexanoyl–CP Dimer]",1.3
19,"O=C(O)c1cn(C2CC2)c2cc(N3CCN(CCCCCCCCCCC(=O)N4CCN(c5cc6c(cc5F)c(=O)c(C(=O)O)cn6C5CC5)CC4)CC3)c(F)cc2c1=O [Compound 21, CP–Undecanoyl–CP Dimer]",15.2
